Assay results from US20250136674A1 (KYOTO UNIVERSITY, published 2025).
No constants are given. Whether binding was seen depends on the method and setting. Binding seen in cells or lysates may run through a third protein. Some entries that bind do so weakly or less than the wild type.

By UniProt entry, the sequences of proteins in these tests, tags left out. Residues count along the entry.
UniProt Q6X4U4, residues 24-206: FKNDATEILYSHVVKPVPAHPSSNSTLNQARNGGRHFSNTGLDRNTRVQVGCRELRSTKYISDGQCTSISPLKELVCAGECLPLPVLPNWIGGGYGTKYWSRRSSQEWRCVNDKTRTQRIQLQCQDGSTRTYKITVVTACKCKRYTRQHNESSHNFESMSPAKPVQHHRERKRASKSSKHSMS
UniProt Q9CQN4, residues 24-206: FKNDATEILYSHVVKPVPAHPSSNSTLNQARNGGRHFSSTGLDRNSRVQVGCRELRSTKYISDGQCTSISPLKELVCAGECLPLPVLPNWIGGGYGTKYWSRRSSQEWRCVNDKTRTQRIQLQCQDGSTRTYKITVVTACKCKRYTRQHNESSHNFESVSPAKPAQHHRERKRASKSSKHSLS

Key:
[1] = biological target: N-terminal PA-tagged human USAG-1 (WISE) recombinant protein (human) (UniProt Q6X4U4); assay: Protein A sepharose pull-down from Expi293F supernatant, SDS-PAGE with CBB staining
[2] = biological target: N-terminal PA-tagged mouse USAG-1 (WISE) recombinant protein (mouse) (UniProt Q9CQN4); assay: as above

- binding [1]: binds
- binding [2]: binds
B1: mouse anti-USAG-1 neutralizing antibody B48C (antibody, V domains shown)
VH: EVQLQQSGAELVRPGASVKLSCTASGFNIKDDYMHWVKQRPEQGLEWIGWIDPENGDTEYASKFQGKATITADTSSNTAYLQLSSLTSEDTAVYYCITPYYYGSSFSYWYFDVWGTGTTVTVSS
VL: DVLMTQTPLSLPVSLGDQASISCRSSQSIVHSNGNTYLEWYLQKPGQSPKLLIYKVSNRFSGVPDRFSGSGSGTDFTLKISRVEAEDLGVYYCFQGSHVPWTFGGGTKLEIKR
notes: Mouse monoclonal from a hybridoma (USAG-1 KO mouse immunised with rat USAG-1)
